# Test results: the supplement of paper PMC9877034
# Structures can show the parent of a compound that is named as a salt. Whole data set: some 1,000 compounds, median “cFRET/donor change relative to DMSO, normalised to beta-lapachone positive control (supercomplex I-IV assembly)” near 0.18, cut for the lowest 2% near -1. The list shows a part of the results.
# System: C2C12 (NDUFB8-AcGFP / COX8A-DsRed-Monomer FRET reporter)
# Assay: cFRET/donor change relative to DMSO, normalised to beta-lapachone positive control (supercomplex I-IV assembly) (fraction of beta-lapachone effect); higher = more respiratory supercomplex assembly
# Details: 40 µM; 24 h
# Description: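 Cells were treated with 40 uM compound for 24 h and imaged on an IN Cell Analyzer 6000. Corrected FRET was divided by donor signal (cFRET/donor) and measured in two replicate experiments. The score is (mean cFRET/donor of compound - mean DMSO) / (mean beta-lapachone 40 uM - mean DMSO). Compounds flagged for prominent cell death, abnormal morphology or decreased cell number were excluded.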
row,SMILES,cFRET/donor change
1,N[C@H]1CONC1=O [L-Cycloserine],0.403
2,O=C(CCc1ccncc1)NNC(=O)N1Cc2ccccc2Oc2ccc(Cl)cc21,0.597
3,Nc1nc2c(cnn2CCc2ccccc2)c2nc(-c3ccco3)nn12,-0.406
4,Nc1cc2c(ncn2CCOCP(=O)(O)O)c(=O)[nH]1 [PMEG hydrate],0.0365
5,COCCNC(=O)COc1ccc(OCCNC[C@H](O)COc2ccccc2)cc1 [ZD 7114 hydrochloride],0.352
6,CN[C@H]1CC[C@@H](c2ccc(Cl)c(Cl)c2)c2ccccc21 [Sertraline hydrochloride],0.829
7,CC[C@H]1OC(=O)[C@H](C)[C@@H](O[C@H]2C[C@@](C)(OC)[C@@H](O)[C@H](C)O2)[C@H](C)[C@@H](O[C@@H]2O[C@H](C)C[C@H](N(C)C)[C@H]2O)[C@](C)(O)C[C@@H](C)CN(C)[C@H](C)[C@@H](O)[C@]1(C)O [Azithromycin dihydrate],0.0562
8,Cc1ccc(-c2cc(C(F)(F)F)nn2-c2ccc(S(N)(=O)=O)cc2)cc1 [Celecoxib],0.546
9,CC(C)[N+]1(C)[C@@H]2CC[C@H]1C[C@@H](OC(=O)C(CO)c1ccccc1)C2 (stereo partly drawn) [Ipratropium bromide],0.299
10,c1cc(CN2CCCCC2)cc(OCCCNc2nc3ccccc3s2)c1,0.343
11,c1ccc2c(c1)CC(N1CCN(c3cccc4c3OCCO4)CC1)C2,0.201
12,CCN(CC)CCNC(=O)c1ccc(N)cc1 [Procainamide hydrochloride],0.127
13,"O=C(O)CCC(C(=O)O)N1C(=O)c2ccccc2C1=O [L-Glutamic acid, N-phthaloyl-]",-0.11
14,CC(=O)Nc1nnc(S(N)(=O)=O)s1 [Acetazolamide],0.22
15,Clc1ccc2nsnc2c1NC1=NCCN1 [Tizanidine hydrochloride],-0.0735
16,C[C@]12CC[C@@H]3c4ccc(O)cc4C[C@@H](CCCCCCCCC[S+]([O-])CCCC(F)(F)C(F)(F)F)[C@H]3[C@@H]1CC[C@@H]2O (stereo partly drawn) [Fulvestrant],0.0846
17,CCC1(c2ccccc2)C(=O)NCNC1=O [Primidone],0.0823
18,COc1cc(Nc2c(C#N)cnc3cc(OCCCN4CCN(C)CC4)c(OC)cc23)c(Cl)cc1Cl [Bosutinib],0.241
19,"COc1ccccc1N1CCN(CCCNc2c(C)c(=O)n(C)c(=O)n2C)CC1 [Urapidil, 5-Methyl-]",0.0714
20,C[C@]12CCC(=O)C=C1CC[C@@H]1[C@@H]2CC[C@@]2(C)[C@H]1CC[C@]2(O)C(=O)CO [Cortexolone],0.123
21,COC(=O)C1=C(C)NC(C)=C(C(=O)OC(C)(C)CN(C)CCC(c2ccccc2)c2ccccc2)C1c1cccc([N+](=O)[O-])c1 (stereo not drawn) [Lercanidipine hydrochloride hemihydrate],0.109
22,NC[C@@H]1O[C@H](C23CC4CC(CC(C4)C2)C3)Cc2c1ccc(O)c2O,0.353
23,CC1CCN(CC[C@H]2CCCN2S(=O)(=O)c2cccc(O)c2)CC1,0.517
24,CN1CCN(CC(=O)N2c3ccccc3C(=O)Nc3cccnc32)CC1 [Pirenzepine dihydrochloride],-0.0803
25,O=C1c2c(O)cc(O)cc2O[C@H](c2ccc(O)c(O)c2)[C@H]1O (racemic) [(±)-Taxifolin],0.226
26,CNCCc1cnc(CCC(c2ccccc2)c2ccccc2)[nH]1 [N-Methylhistaprodifen dioxalate salt],0.364

# A portion taken from the entries so far, as a working copy:
row,SMILES,cFRET/donor change
5,COCCNC(=O)COc1ccc(OCCNC[C@H](O)COc2ccccc2)cc1 [ZD 7114 hydrochloride],0.352
6,CN[C@H]1CC[C@@H](c2ccc(Cl)c(Cl)c2)c2ccccc21 [Sertraline hydrochloride],0.829
7,CC[C@H]1OC(=O)[C@H](C)[C@@H](O[C@H]2C[C@@](C)(OC)[C@@H](O)[C@H](C)O2)[C@H](C)[C@@H](O[C@@H]2O[C@H](C)C[C@H](N(C)C)[C@H]2O)[C@](C)(O)C[C@@H](C)CN(C)[C@H](C)[C@@H](O)[C@]1(C)O [Azithromycin dihydrate],0.0562
8,Cc1ccc(-c2cc(C(F)(F)F)nn2-c2ccc(S(N)(=O)=O)cc2)cc1 [Celecoxib],0.546
9,CC(C)[N+]1(C)[C@@H]2CC[C@H]1C[C@@H](OC(=O)C(CO)c1ccccc1)C2 (stereo partly drawn) [Ipratropium bromide],0.299
10,c1cc(CN2CCCCC2)cc(OCCCNc2nc3ccccc3s2)c1,0.343
11,c1ccc2c(c1)CC(N1CCN(c3cccc4c3OCCO4)CC1)C2,0.201
12,CCN(CC)CCNC(=O)c1ccc(N)cc1 [Procainamide hydrochloride],0.127
13,"O=C(O)CCC(C(=O)O)N1C(=O)c2ccccc2C1=O [L-Glutamic acid, N-phthaloyl-]",-0.11
14,CC(=O)Nc1nnc(S(N)(=O)=O)s1 [Acetazolamide],0.22
15,Clc1ccc2nsnc2c1NC1=NCCN1 [Tizanidine hydrochloride],-0.0735
16,C[C@]12CC[C@@H]3c4ccc(O)cc4C[C@@H](CCCCCCCCC[S+]([O-])CCCC(F)(F)C(F)(F)F)[C@H]3[C@@H]1CC[C@@H]2O (stereo partly drawn) [Fulvestrant],0.0846
17,CCC1(c2ccccc2)C(=O)NCNC1=O [Primidone],0.0823
18,COc1cc(Nc2c(C#N)cnc3cc(OCCCN4CCN(C)CC4)c(OC)cc23)c(Cl)cc1Cl [Bosutinib],0.241
19,"COc1ccccc1N1CCN(CCCNc2c(C)c(=O)n(C)c(=O)n2C)CC1 [Urapidil, 5-Methyl-]",0.0714
20,C[C@]12CCC(=O)C=C1CC[C@@H]1[C@@H]2CC[C@@]2(C)[C@H]1CC[C@]2(O)C(=O)CO [Cortexolone],0.123
21,COC(=O)C1=C(C)NC(C)=C(C(=O)OC(C)(C)CN(C)CCC(c2ccccc2)c2ccccc2)C1c1cccc([N+](=O)[O-])c1 (stereo not drawn) [Lercanidipine hydrochloride hemihydrate],0.109
22,NC[C@@H]1O[C@H](C23CC4CC(CC(C4)C2)C3)Cc2c1ccc(O)c2O,0.353
23,CC1CCN(CC[C@H]2CCCN2S(=O)(=O)c2cccc(O)c2)CC1,0.517
24,CN1CCN(CC(=O)N2c3ccccc3C(=O)Nc3cccnc32)CC1 [Pirenzepine dihydrochloride],-0.0803
25,O=C1c2c(O)cc(O)cc2O[C@H](c2ccc(O)c(O)c2)[C@H]1O (racemic) [(±)-Taxifolin],0.226
26,CNCCc1cnc(CCC(c2ccccc2)c2ccccc2)[nH]1 [N-Methylhistaprodifen dioxalate salt],0.364

# Carrying on:

row,SMILES,cFRET/donor change
1,COc1ccc(C2(O)OC(=O)C(c3ccc4c(c3)OCO4)=C2Cc2cc(OC)c(OC)c(OC)c2)cc1 (stereo not drawn),0.173
2,CCCNC(=O)NS(=O)(=O)c1ccc(Cl)cc1 [Chlorpropamide],0.196
3,CCN(CC)C(C)CN1c2ccccc2Sc2ccccc21 (stereo not drawn) [Ethopropazine hydrochloride],-0.00468
4,Clc1cccc(Cl)c1NC1=NCCN1 [Clonidine hydrochloride],0.448
5,CN1CCN(C2Cc3ccccc3Sc3ccc(Cl)cc32)CC1 (racemic) [(±)-Octoclothepin maleate],0.337
6,N=C(N)NCCCCNC(=N)N [Arcaine sulfate],-0.135
7,O=C(CCCCCN1CCN(c2ccccc2-c2ccccc2)CC1)NC1CCCc2ccccc21 (stereo not drawn) [LP 12 hydrochloride hydrate],1.51
8,O=C(O)CCc1ccc(NCc2cccc(Oc3ccccc3)c2)cc1,-0.4
9,O=C1NC(=O)c2cc(Nc3ccccc3)c(Nc3ccccc3)cc21,1.14
10,O=C1NCC2(CCN(CCc3ccccc3)CC2)O1 [Fenspiride hydrochloride],0.47
11,Cl.N[C@@H](CCC(=O)O)C(=O)O [L-Glutamic acid hydrochloride],0.334
12,CSC(=N)N [S-Methylisothiourea hemisulfate],0.319
13,CCN(CC)C(=O)c1ccc(O)c(OC)c1 [Vanillic acid diethylamide],0.26
14,CN1C(C(=O)Nc2ccccn2)=C(O)c2ccccc2S1(=O)=O [Piroxicam],0.243
15,COCCOC(=O)C1=C(C)NC(C)=C(C(=O)OC(C)C)C1c1cccc([N+](=O)[O-])c1 (stereo not drawn) [Nimodipine],0.119
16,NCCS [Cysteamine hydrochloride],0.308
17,CC(N)(Cc1ccc(O)cc1)C(=O)O (racemic) [DL-alpha-Methyl-p-tyrosine],-0.224
18,"COC(=O)[C@@H](N)Cc1ccc(O)c(O)c1 [L-3,4-Dihydroxyphenylalanine methyl ester hydrochloride]",0.37
19,COc1ccc2c(c1)c(CC(=O)O)c(C)n2Cc1ccc(Cl)cc1 [1-(4-Chlorobenzyl)-5-methoxy-2-methylindole-3-acetic acid],0.248
20,O=C(CCCN1CCC(O)(c2ccc(Cl)cc2)CC1)c1ccc(F)cc1 [Haloperidol],0.135
21,CC(C[N+](C)(C)C)OC(N)=O (stereo not drawn) [Bethanechol chloride],-0.028
22,N[C@@H](Cc1c[nH]cn1)C(=O)O [L-Histidine hydrochloride],-0.0447
23,Cc1cn([C@H]2C[C@H](N=[N+]=[N-])[C@@H](CO)O2)c(=O)[nH]c1=O [3'-Azido-3'-deoxythymidine],-0.184
24,COc1ccc([C@@H]2Sc3ccccc3N(CCN(C)C)C(=O)[C@@H]2OC(C)=O)cc1 [Diltiazem hydrochloride],0.341
25,O=C1N=C(O)NC1(c1ccccc1)c1ccccc1 [Phenytoin sodium],0.149
26,CCOC(=O)[C@@H](N)Cc1ccc(O)c(O)c1 [L-Dopa ethyl ester],-0.101

row,SMILES,cFRET/donor change
1,O=C1Nc2ccc(I)cc2/C1=C/c1cc(Br)c(O)c(Br)c1,-3
2,NCCCCN [Putrescine dihydrochloride],0.0353
3,Cc1cccc(-c2[nH]ncc2-c2ccc3ncccc3n2)n1,0.0385
4,O=C1OC(=O)[C@H]2[C@@H]1[C@@H]1CC[C@H]2O1 [Norcantharidin],0.251
5,Nc1nc2c(ncn2[C@@H]2O[C@H](CO)[C@@H](O)[C@@H]2O)c(=O)[nH]1 [Ara-G hydrate],0.198
6,Cc1nnc(SCC2=C(C(=O)O)N3C(=O)[C@@H](NC(=O)Cn4cnnn4)[C@H]3SC2)s1 [Cefazolin sodium],0.345
7,CCCCC1(C2CCCC2)Cc2cc(OCC(=O)O)c(Cl)c(Cl)c2C1=O (stereo in doubt) [R(+)-Butylindazone],0.322
8,Oc1cc(O)cc(/C=C/c2ccc(O)c(O)c2)c1 [Piceatannol],1.61
9,Nc1nnc(-c2cccc(Cl)c2Cl)c(N)n1 [Lamotrigine],0.327
10,CC[C@@]1(O)C(=O)OCc2c1cc1n(c2=O)Cc2cc3c(CN(C)C)c(O)ccc3nc2-1 [Topotecan hydrochloride hydrate],-3.92
11,O=c1c2ccccc2[nH]c(=S)n1CCN1CCC(=C(c2ccc(F)cc2)c2ccc(F)cc2)CC1 [Diacylglycerol Kinase Inhibitor II],0.449
12,CC(=O)NC[C@H]1CN(c2ccc(N3CCOCC3)c(F)c2)C(=O)O1 [Linezolid],0.372
13,C[C@H](CCC(=O)NCCS(=O)(=O)O)[C@H]1CC[C@H]2[C@@H]3[C@H](O)C[C@@H]4C[C@H](O)CC[C@]4(C)[C@H]3C[C@H](O)[C@]12C [Sodium Taurocholate hydrate],0.0638
14,Cc1ccc(S(=O)(=O)/C=C/C#N)cc1,0.324
15,CC1=C(C(=O)O)N2C(=O)[C@@H](NC(=O)[C@H](N)c3ccccc3)[C@H]2SC1 [Cephalexin hydrate],0.038
16,CCCc1c(OCCCOc2ccc(OCC(=O)O)cc2)ccc(C(C)=O)c1O,0.0477
17,CN1CC(=O)N=C1NC(=O)Nc1cccc(Cl)c1 [Fenobam],-0.00878
18,CNCC[C@@H](Oc1ccccc1C)c1ccccc1 [Tomoxetine],0.163
19,CSc1nc(N)c2ncn([C@@H]3O[C@H](COP(=O)(O)OP(=O)(O)O)[C@H](O)C3O)c2n1 (stereo partly drawn),-0.144
20,Nc1c(S(=O)(=O)O)cc(Nc2ccc(Nc3nc(Cl)nc(Nc4cccc(S(=O)(=O)O)c4)n3)c(S(=O)(=O)O)c2)c2c1C(=O)c1ccccc1C2=O [Reactive Blue 2],-0.336
21,NS(=O)(=O)C#Cc1ccccc1 [Pifithrin-mu],0.551
22,CCCCC1C(=O)N(c2ccccc2)N(c2ccccc2)C1=O [Phenylbutazone],0.0948
23,N=C(N)SCCN [2-(2-Aminoethyl)isothiourea dihydrobromide],-0.331
24,N=C(N)N1CCc2ccccc2C1 [Debrisoquin sulfate],0.0301
25,"O=C(O)Cc1ccc(O)c(O)c1 [3,4-Dihydroxyphenylacetic acid]",0.947
26,CN1[C@@H]2CC[C@H]1C[C@@H](OC(c1ccccc1)c1ccccc1)C2 [Benztropine mesylate],0.586
